Several values for one entry are separate records, joined by “and”; a condition that tells them apart may be missing. Equal values may be shown once. Read-outs that look alike come from different tables or passages of the source. This continues a long series; more values of the same kind are listed elsewhere.
Tested on: SARS-CoV-2
Assay type: cell-based, Vero (Africa Green Monkey kidney epithelium)
Details: replicates

With pentosan polysulfate [PPS] the PFU/well (PPS 25 μg/ml on Vero cells 30 min prior to infection with 50 PFU) was 28 PFU/well and 32 PFU/well, the PFU/well (PPS 50 μg/ml on Vero cells 30 min prior to infection with 50 PFU) was 17 PFU/well and 20 PFU/well and 32 PFU/well and 25 PFU/well and 31 PFU/well and 29 PFU/well and 27 PFU/well and 24 PFU/well and the PFU/well (PPS 100 μg/ml on Vero cells 30 min prior to infection with 50 PFU) was 20 PFU/well and 19 PFU/well and 22 PFU/well (2×) and 23 PFU/well and 21 PFU/well (2×) and 25 PFU/well.

Source: patent US12433913B2, “Treatment of acute respiratory disease syndrome (ARDS) with polysulfated polysaccharides” (Paradigm Biopharmaceuticals Ltd., priority 2020, dated 2025)
